PubChem BioAssay AID720710 | VTT Finland | 2013
The deposit covers about 1,380 reagents; this is a part drawn at random. 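One array per condition without replicates; hydroxyurea arrays received 2 mM for 16 h plus 3 h recovery.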 Reagents against one gene are numbered here.

Assay: 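Knock-downs that leave cyclin E-high cells sensitive to replication stress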 (primary screen)
System: human U-2 OS bone cancer cells, parental and a cyclin E (CCNE1) overexpressing line
Reagents: single siRNA against human genes, 1 µM siRNA in the printed spot mix
Time to read-out: 67 h
Conditions: half the arrays: hydroxyurea 2 mM for 16 h, then 3 h recovery; other arrays untreated
Measurement: 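DNA synthesis measured as imaged EdU uptake per nucleus (DAPI) at 67 h, normalised to subgrid median and given as z-score versus non-targeting controls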
Direction: EdU z-score, cyclin E line, hydroxyurea and EdU z-score, parental, hydroxyurea and EdU z-score, cyclin E line, untreated and EdU z-score, parental, untreated: higher = more DNA synthesis than non-targeting controls

| gene knocked down | reagent no. | EdU z-score, cyclin E line, hydroxyurea | EdU z-score, parental, hydroxyurea | EdU z-score, cyclin E line, untreated | EdU z-score, parental, untreated |
| --- | --- | --- | --- | --- | --- |
| NBN | 1 | -2.15 | -0.187 | -0.728 | -0.354 |
| NBN | 2 | -1.96 | 1.31 | -0.132 | 1.12 |
| NAP1L4 | 1 | -1.07 | 0.542 | -0.231 | -0.262 |
| NAP1L4 | 2 | 2.91 | 2.26 | 0.152 | 0.562 |
| SETDB2 | 1 | -0.184 | -0.243 | -0.343 | -0.812 |
| SETDB2 | 2 | 2.53 | 3.53 | -0.0662 | 1.42 |
| SMC4 | 1 | 0.75 | -0.0402 | -1.52 | -2.57 |
| SMC4 | 2 | 0.864 | 1.86 | -0.416 | 0.374 |
| XRCC4 | 1 | 0.145 | -0.159 | -0.877 | -2.51 |
| XRCC4 | 2 | 0.87 | 3.74 | 0.596 | 1.69 |
| POLM | 1 | -0.444 | -0.697 | -0.555 | -2.83 |
| POLM | 2 | 0.25 | 2.31 | 0.0794 | 0.82 |
| H4C16 | 1 | -2.64 | -1.37 | -0.698 | -0.213 |
| H4C16 | 2 | 0.82 | 0.548 | 0.187 | 0.675 |
| GTF2H4 | 1 | -2.6 | -2.32 | -1.38 | -1.07 |
| GTF2H4 | 2 | -1.45 | 1.67 | -0.377 | -0.391 |

Next part; the last 4 above are carried over.
| gene knocked down | reagent no. | EdU z-score, cyclin E line, hydroxyurea | EdU z-score, parental, hydroxyurea | EdU z-score, cyclin E line, untreated | EdU z-score, parental, untreated |
| --- | --- | --- | --- | --- | --- |
| H4C16 | 1 | -2.64 | -1.37 | -0.698 | -0.213 |
| H4C16 | 2 | 0.82 | 0.548 | 0.187 | 0.675 |
| GTF2H4 | 1 | -2.6 | -2.32 | -1.38 | -1.07 |
| GTF2H4 | 2 | -1.45 | 1.67 | -0.377 | -0.391 |
| SMARCA1 | 1 | -0.795 | -0.0405 | -2.43 | -0.609 |
| SMARCA1 | 2 | -0.256 | 0.709 | -1.04 | -0.249 |
| SUV39H2 | 1 | -0.713 | -0.653 | -2.95 | -1.15 |
| SUV39H2 | 2 | 0.673 | 1.28 | -0.154 | -0.299 |
| RECQL4 | 1 | -0.969 | -5.96 | 0.282 | -2.27 |
| RECQL4 | 2 | 0.545 | 1.65 | 0.57 | -0.424 |
| CUL4A | 1 | 0.178 | 0.259 | -1.33 | 0.639 |
| CUL4A | 2 | 1.3 | 1.21 | 0.436 | 0.925 |
| FANCG | 1 | 0.34 | 1.08 | -1.93 | -0.842 |
| FANCG | 2 | 2.54 | 1.99 | 0.0992 | -0.278 |
| PEDS1-UBE2V1 | 1 | 0.826 | -0.709 | -1.76 | -0.135 |
| PEDS1-UBE2V1 | 2 | 2.44 | 1.6 | 0.7 | 0.053 |
| NAE1 | 1 | -2.03 | -1.36 | -1.59 | -1.37 |
| NAE1 | 2 | -0.323 | -0.56 | -0.754 | -0.923 |
| NEDD1 | 1 | 0.0187 | -0.42 | -1.31 | -0.203 |
| NEDD1 | 2 | 0.715 | 1.28 | -0.639 | 0.335 |
| NFIB | 1 | 1.04 | -1.52 | -0.505 | -0.801 |
| NFIB | 2 | 1.94 | 2.43 | 1.37 | 0.92 |
| MCPH1 | 1 | -2.27 | -3.46 | -0.555 | -1.09 |
| MCPH1 | 2 | -0.341 | -2 | 0.862 | 1.05 |
| RBBP8 | 1 | -2.21 | -0.28 | -0.995 | -0.88 |
| RBBP8 | 2 | 0.285 | 0.605 | 0.942 | 2.29 |
| CEBPG | 1 | 0.33 | -2.38 | -1.63 | -0.528 |
| CEBPG | 2 | 0.602 | -0.47 | -1.47 | 1.04 |
